Assay results: paper PMC4456659
Results are given in words; binding and its absence hold for the method and conditions named. Binding seen in cells or lysates may run through a third protein. Here binding means that the protein was enriched with, or labelled near, the bait; the list need not be complete.

The chains behind the UniProt entries cited, without tags or fusion partners. Residues count along the entry.
UniProt O75460, residues 19-977: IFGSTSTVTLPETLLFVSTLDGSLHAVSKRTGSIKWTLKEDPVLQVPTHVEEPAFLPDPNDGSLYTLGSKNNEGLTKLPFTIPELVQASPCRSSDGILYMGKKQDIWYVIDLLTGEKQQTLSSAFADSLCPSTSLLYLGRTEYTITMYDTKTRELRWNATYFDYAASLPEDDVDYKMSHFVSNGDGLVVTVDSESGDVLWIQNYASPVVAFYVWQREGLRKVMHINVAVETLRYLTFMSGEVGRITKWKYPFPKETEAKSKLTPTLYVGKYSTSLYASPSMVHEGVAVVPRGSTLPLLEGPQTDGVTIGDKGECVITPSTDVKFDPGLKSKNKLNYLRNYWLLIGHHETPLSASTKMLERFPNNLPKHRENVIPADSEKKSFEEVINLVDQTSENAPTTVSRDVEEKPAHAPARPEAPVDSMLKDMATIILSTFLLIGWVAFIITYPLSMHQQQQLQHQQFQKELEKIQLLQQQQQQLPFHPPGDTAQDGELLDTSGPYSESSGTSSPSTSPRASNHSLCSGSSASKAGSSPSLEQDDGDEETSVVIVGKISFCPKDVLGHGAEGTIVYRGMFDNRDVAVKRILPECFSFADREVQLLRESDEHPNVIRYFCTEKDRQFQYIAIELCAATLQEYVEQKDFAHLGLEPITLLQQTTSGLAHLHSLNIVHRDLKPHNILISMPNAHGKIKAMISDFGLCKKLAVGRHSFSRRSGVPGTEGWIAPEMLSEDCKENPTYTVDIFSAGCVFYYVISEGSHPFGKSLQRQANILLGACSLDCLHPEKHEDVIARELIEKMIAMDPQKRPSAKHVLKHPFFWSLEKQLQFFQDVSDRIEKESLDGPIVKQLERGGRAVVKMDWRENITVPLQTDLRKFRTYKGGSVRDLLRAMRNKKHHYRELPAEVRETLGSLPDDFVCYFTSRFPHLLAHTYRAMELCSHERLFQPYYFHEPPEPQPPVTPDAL
UniProt P60468: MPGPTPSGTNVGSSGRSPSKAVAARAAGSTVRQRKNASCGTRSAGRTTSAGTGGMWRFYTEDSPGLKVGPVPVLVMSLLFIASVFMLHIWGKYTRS
UniProt Q9UGP8: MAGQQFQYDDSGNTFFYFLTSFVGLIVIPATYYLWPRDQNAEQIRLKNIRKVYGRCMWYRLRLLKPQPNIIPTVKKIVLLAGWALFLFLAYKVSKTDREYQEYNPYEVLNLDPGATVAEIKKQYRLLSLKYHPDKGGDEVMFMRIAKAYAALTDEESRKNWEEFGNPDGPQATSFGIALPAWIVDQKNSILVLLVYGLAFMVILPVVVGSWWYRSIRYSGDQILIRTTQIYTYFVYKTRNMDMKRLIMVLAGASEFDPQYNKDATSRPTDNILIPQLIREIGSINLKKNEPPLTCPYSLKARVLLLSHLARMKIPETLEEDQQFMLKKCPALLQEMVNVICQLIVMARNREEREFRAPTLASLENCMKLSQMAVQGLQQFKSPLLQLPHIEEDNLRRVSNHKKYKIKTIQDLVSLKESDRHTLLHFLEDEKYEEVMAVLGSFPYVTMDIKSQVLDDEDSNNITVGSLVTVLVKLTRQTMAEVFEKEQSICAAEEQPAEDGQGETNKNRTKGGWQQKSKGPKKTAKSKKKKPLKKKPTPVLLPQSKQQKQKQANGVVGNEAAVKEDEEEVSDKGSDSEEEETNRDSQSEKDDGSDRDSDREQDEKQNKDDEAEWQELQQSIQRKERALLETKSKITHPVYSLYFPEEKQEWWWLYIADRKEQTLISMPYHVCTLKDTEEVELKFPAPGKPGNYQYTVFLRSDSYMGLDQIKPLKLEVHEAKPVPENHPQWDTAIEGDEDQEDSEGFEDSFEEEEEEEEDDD

Biological target: HA-tagged Ire1α (human) (UniProt O75460)
Test: affinity purification with mass spectrometry; 1% digitonin extract of microsomes from HEK 293 cells stably expressing Ire1α-HA (250 ng/ml doxycycline, 48 hr) bound to anti-HA agarose, washed with 0.2% digitonin, eluted with 0.1 M glycine pH 2.3; bands absent from the control identified by mass spectrometry

binding	Substance
binds	Sec61β (endogenous, HEK 293) (from UniProt P60468 1-96)
binds	Sec63 (from UniProt Q9UGP8 1-760)
